Reference: PubChem BioAssay AID493014 (National Center for Advancing Translational Sciences (NCATS), 2011)
The list shows a part of the results. Shown are side measurements of this screen, not its main read-out; they come without a call. Most of these compounds were active or inconclusive in the main read-out, so they are no random draw. The note in brackets gives the kind of curve behind each potency; many fits are weak.

Assay: qHTS Assay to Find Inhibitors of Chronic Active B-Cell Receptor Signaling
Conditions: ABC-DLBCL IkBa-CBG/CBR reporter, luminescence ratio (green luciferase fused to IkBa over red control in TMD8 lymphoma cells), 4 h
Method in brief: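 Compounds up to 46 uM were incubated four hours with TMD8 cells whose green CBG68 luciferase is fused to IkappaBalpha; red CBR luminescence normalised the signal, and concentration-effect curves were fitted to fusion, red and ratio data.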

[1] = measured here: CBR red luminescence, cell number
[2] = measured here: IkBa-CBG green luminescence

| Compound | AC50 [1] | AC50 [2] |
| --- | --- | --- |
| O=C(N/N=C/c1cccnc1)c1[nH]ncc1Br | 3.98 µM [falling, partial curve] | – |
| CCOC(=O)c1c(NC(=O)CN2CCCc3ccccc32)sc(C(C)=O)c1C | 0.731 µM [rising, full curve, poor fit] | – |
| Cc1cccn2c(=O)c(C=O)c(Sc3ncccn3)nc12 | 22.4 µM [falling, single point] | – |
| c1cncc(-c2noc(-c3ccc4ccccc4c3)n2)c1 | 12.6 µM [falling, single point] | – |
| COc1ccc(S(=O)(=O)N2N=C(C)Oc3ccccc3C2=O)cc1 | 12.6 µM [rising, partial curve] | – |
| COc1ccc(C(=O)/C=C/c2ccc3c(c2)OCCO3)cc1 | 20 µM [falling, single point] | – |
| COC(=O)c1cccc(NC(=O)/C=C/c2ccc([N+](=O)[O-])cc2)c1 | 3.66 µM [falling, full curve] | – |
| Nc1cc(=O)[nH]c(SCC(=O)Nc2cc(Cl)cc(Cl)c2)n1 | 29.1 µM [rising, single point] | 16.4 µM [falling, partial curve, poor fit] |
| COc1ccc(NC(=O)Nc2ccc(Br)cn2)cc1OC | 6.51 µM [rising, single point] | – |
| CCOc1ccc(N2C(=O)Nc3ccccc3C2(O)C(=O)NCc2ccc3c(c2)OCO3)cc1 (stereo unspecified) | 7.94 µM [falling, partial curve, poor fit] | – |
| C(=C\c1nnc(-c2cccs2)o1)/c1ccccc1 | 10 µM [falling, partial curve] | – |
| Cc1ccc(/C=C(\C#N)C(=O)NCC2CCCO2)o1 (stereo unspecified) | 29.1 µM [falling, single point] | – |
| O=C1/C(=C/c2ccncc2)SC(=S)N1C1CCS(=O)(=O)C1 (stereo unspecified) | 3.98 µM [falling, full curve] | – |
| Cc1noc(C)c1C(=O)N1CCN(c2ccccc2O)CC1 | 0.103 µM [rising, full curve] | – |
| CCC(CO)NCC#Cc1ccccc1 (stereo unspecified) | 2.82 µM [rising, partial curve, poor fit] | – |
| Cc1cc2n(n1)C(c1ccccc1Cl)Nc1ccccc1-2 (stereo unspecified) | 9.2 µM [rising, partial curve, poor fit] | – |
| Cc1[nH]n(-c2ccc(Br)cc2)c(=O)c1/C=N/NC(=O)c1ccccc1 | 4.47 µM [falling, partial curve] | – |
| O=C(NCCCC1CCCC1)C1CCC(=O)N(Cc2ccc(Cl)cc2)C1 (stereo unspecified) | 11.2 µM [falling, partial curve, poor fit] | – |
| CN(C)C(=O)CCc1ccc2c3c([nH]c2c1)[C@]1(C)[C@@H](C(=O)N2CCOCC2)C[C@H](CC(=O)NCc2cccc(C(F)(F)F)c2)C(=O)N1CC3 | 18.4 µM [rising, single point] | 32.6 µM [falling, single point] |
| O=C(NC1CCCC1)c1cc(Nc2cccc(C(F)(F)F)c2)nc2ccccc12 | 0.562 µM [falling, full curve, poor fit] | – |

Entries of single compounds, quoted from the list.
COc1ccc(S(=O)(=O)N2N=C(C)Oc3ccccc3C2=O)cc1 as listed: AC50 [1]: 12.6 µM [rising, partial curve]
O=C1/C(=C/c2ccncc2)SC(=S)N1C1CCS(=O)(=O)C1 (stereo unspecified) as listed: AC50 [1]: 3.98 µM [falling, full curve]

Later entries:

| Compound | AC50 [1] | AC50 [2] |
| --- | --- | --- |
| CS(=O)(=O)N(C(=O)NC(=O)NC1CCS(=O)(=O)C1)C1CCCCC1 (stereo unspecified) | 5.01 µM [falling, single point] | – |
| CCOc1ccc2oc(=O)cc(C)c2c1 | 0.326 µM [falling, full curve, poor fit] | 4.11 µM [rising, partial curve, poor fit] |
| Cc1cccc(NC(=O)Nc2cc(C)cc(C)n2)c1 | 3.16 µM [rising, single point] | – |
| CCOC(=O)C1CCCN(S(=O)(=O)CCNC(=O)c2ccc3c(c2)OCO3)C1 (stereo unspecified) | 16.4 µM [rising, partial curve, poor fit] | – |
| Cc1ccc(C(=O)C2=C(O)C(=O)N(CCCN3CCOCC3)C23C(=O)N(C)c2ccccc23)o1 (stereo unspecified) | 35.5 µM [rising, single point] | – |
| Cc1ccc(C(=O)N2CCN(c3ccc(NC(=O)c4ccc(Br)o4)cc3)CC2)cc1 | 0.411 µM [falling, full curve, poor fit] | – |
| Cn1c(CN2CCCCC2)nc2cc(NC(=O)c3ccccc3Cl)ccc21 | 7.94 µM [falling, partial curve, poor fit] | – |
| Cc1ccc(C(CC(=O)NCc2ccco2)c2ccc(OC(C)C)cc2)cc1 (stereo unspecified) | 35.5 µM [falling, partial curve, poor fit] | 12.6 µM [rising, partial curve, poor fit] |
| CCOc1ccccc1NC(=S)NCC1CCCO1 (stereo unspecified) | 25.9 µM [falling, partial curve, poor fit] | – |
| CC[C@]12c3[nH]c4ccccc4c3CCN1C(=O)C(CC(=O)NCCC1=CCCCC1)C[C@@H]2C(=O)N1CCN(C(=O)c2ccco2)CC1 (stereo partly specified) | 16.4 µM [falling, partial curve] | – |
| Cc1cc(C(=O)COC(=O)/C=C/c2ccc(F)cc2)c(C)n1C | 16.4 µM [rising, single point] | – |
| Cc1cccc(NC2=C(Cl)C(=O)OC2OC(=O)c2ccco2)c1 (stereo unspecified) | 6.31 µM [falling, full curve, poor fit] | – |
| CCC(C)c1ccc(NC(=O)c2cccs2)cc1 (stereo unspecified) | 18.4 µM [falling, single point] | – |
| O=C(COC(=O)c1ccc(Cl)cc1O)Nc1cccnc1Cl | 29.1 µM [falling, single point] | – |
| Cc1cc(Nc2ccc(Cl)cc2)nc(NCc2ccccc2)n1 | 6.51 µM [rising, partial curve, poor fit] | – |
| Cc1ccc(CCNC(=O)c2ccc3c(c2)N(Cc2cccc(Cl)c2)C(=O)c2ccccc2S3(=O)=O)cc1 | 6.31 µM [rising, partial curve, poor fit] | – |
| CN=c1scc(C)n1/N=C/c1ccc2c(c1)OCO2 | 29.1 µM [falling, single point] | – |
| CCOC(=O)c1sc(NC(=S)NC(=O)c2ccccc2)nc1C | 3.55 µM [falling, full curve] | – |
| COc1cccc(C2CC(c3ccccc3OC)n3nc(N)nc3N2)c1 (stereo unspecified) | 20 µM [rising, partial curve, poor fit] | – |
| O=C(O)C1CC(=O)N(c2ccc(OCc3ccccc3Cl)cc2)C1 (stereo unspecified) | 8.2 µM [falling, partial curve] | – |

| Compound | AC50 [1] | AC50 [2] |
| --- | --- | --- |
| CCN(CC(=O)Nc1cc(Cl)ccc1Cl)C(=O)c1ccc(-n2cccn2)cc1 | 11.6 µM [rising, partial curve] | – |
| CCOc1ccc(C(=O)NC(=S)Nc2ccccc2N2CCC(C)CC2)cc1[N+](=O)[O-] | 35.5 µM [rising, single point] | – |
| Cc1cc(C)c2nc(SCCC#N)nc(C)c2c1 | 1 µM [rising, full curve, poor fit] | – |
| O=C(c1cc2cc(Cl)ccc2[nH]1)N1CCN(c2ccc(F)cc2)CC1 | 22.4 µM [rising, single point] | – |
| COCCN(C(=O)Cc1cccs1)C(C(=O)NC1CCCC1)c1ccc(OC)c(OC)c1 (stereo unspecified) | 35.5 µM [rising, partial curve, poor fit] | – |
| OCCCNc1nc(-c2ccccc2)nc2c1oc1ccccc12 | 8.91 µM [falling, partial curve, poor fit] | – |
| CCC(C)NC(=O)CN(C)S(=O)(=O)c1ccc2c(c1)c(=O)n(C)c(=O)n2C (stereo unspecified) | 25.9 µM [rising, partial curve, poor fit] | – |
| C#CCOCCOCCOCCNc1nc(N2CCN(C(=O)CCCCCCCCCCNC(=O)Cn3cc(CCCCCN)nn3)CC2)nc(N2CCN(C(=O)CCCCCCCCCCNC(=O)[C@@H](CCSC)n3cc(CCO)nn3)CC2)n1 | 29.1 µM [rising, single point] | 29.1 µM [falling, partial curve, poor fit] |
| Cc1ccc(Cl)cc1NC(=S)N(Cc1ccco1)C(C)c1cccs1 (stereo unspecified) | 17.8 µM [falling, partial curve] | – |
| CCOCCN(C(=O)COC)c1cccc(OC)c1 | 12.6 µM [rising, partial curve] | – |
| COc1ccc(CN(C)C(=O)CCCNC(=O)c2ccc(Cl)cc2)cc1 | 4.47 µM [rising, single point] | – |
| CCCCCCc1ccc(O)cc1O | 20.6 µM [rising, single point] | – |
| Cc1ccc(NC(=O)Cn2ncc(Cl)c(Cl)c2=O)cc1S(=O)(=O)N1CCCCC1 | 5.8 µM [falling, partial curve] | – |
| O=C(Cc1cccs1)OCC(=O)c1ccco1 | 5.62 µM [rising, partial curve, poor fit] | – |
| CCN1CCN(CCNC(=O)c2ccc3c(c2)N(Cc2ccc(F)cc2)C(=O)/C(=C/c2ccccc2)S3)CC1 | 7.08 µM [falling, partial curve] | – |
| Cc1ccc(N(C(=O)CS(=O)CC(=O)Nc2ccc(F)cc2)C(C(=O)NC2CCCCC2)c2ccco2)cc1 (stereo unspecified) | 2.06 µM [falling, single point] | – |
| Cc1noc(NS(=O)(=O)c2ccc(NC(=O)CSc3nnc(-c4ccccc4)n3C3CCCCC3)cc2)c1C | 1.84 µM [falling, partial curve, poor fit] | – |
| COc1ccc(/C=N\NC(=O)c2c(C)nc3ccc(Br)cn23)cc1 | 9.2 µM [rising, partial curve] | 10.3 µM [falling, partial curve] |
| O=C(O)c1ccc(-c2nnc(-c3ccccc3)o2)cc1 | 7.94 µM [falling, partial curve, poor fit] | – |
| COc1cccc(CNC(=O)Cn2cc([N+](=O)[O-])cn2)c1 | 35.5 µM [rising, single point] | – |

Reprinted at random: 2 entries already listed, in no set order.

| Compound | AC50 [1] | AC50 [2] |
| --- | --- | --- |
| CCOc1ccc(C(=O)NC(=S)Nc2ccccc2N2CCC(C)CC2)cc1[N+](=O)[O-] | 35.5 µM [rising, single point] | – |
| CCN1CCN(CCNC(=O)c2ccc3c(c2)N(Cc2ccc(F)cc2)C(=O)/C(=C/c2ccccc2)S3)CC1 | 7.08 µM [falling, partial curve] | – |
